Measurements reported in PubChem BioAssay AID1259254 (NCATS, 2017)
Here is one part, drawn at random, of about 59,000 reagents. In the full data, about 1,550 (2.6%) got an active call. 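G2 share is only a proxy for re-replication; each gene was hit by three separate siRNAs, and active genes were retested.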 Unmarked entries are inactive. Further read-outs or replicates are left out here. Not stated in the record: the amount of reagent.

Purpose: 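Gene knock-downs that lead to re-replication, shown by excess G2 DNA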 (primary screen)
Cell system: human HCT116 colorectal cancer cells
Knock-down reagent: single siRNA against human genes
Duration: 3 days
Read-out: 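Nuclei stained with Hoechst and imaged; cell-cycle phase assigned by DNA content; G2 share scaled per plate, non-targeting siRNA 0%, GMNN siRNA 100%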
Reading the numbers: G2 robust z-score: higher = more G2 cells, more excess DNA replication
Active means: 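An siRNA counts as active if its G2 robust z-score lies at least 5 MADs above the screen median; here such calls match roughly 38% of GMNN control or more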

{"Gene": "IL2", "PubChem SID": "SID160731132", "G2 robust z-score": -0.445}
{"Gene": "IL2", "PubChem SID": "SID160775688", "G2 robust z-score": -1.06}
{"Gene": "IL2", "PubChem SID": "SID160775689", "G2 robust z-score": 0.798}
{"Gene": "NXNL2", "PubChem SID": "SID160759582", "G2 robust z-score": -0.155}
{"Gene": "NXNL2", "PubChem SID": "SID160759583", "G2 robust z-score": 0.853}
{"Gene": "NXNL2", "PubChem SID": "SID160759584", "G2 robust z-score": 4.54}
{"Gene": "PLEK", "PubChem SID": "SID160714468", "G2 robust z-score": 1.32}
{"Gene": "PLEK", "PubChem SID": "SID160714469", "G2 robust z-score": "7.13 (active)"}
{"Gene": "PLEK", "PubChem SID": "SID160714470", "G2 robust z-score": -0.5}
{"Gene": "KMT2D", "PubChem SID": "SID160719616", "G2 robust z-score": 0.0892}
{"Gene": "KMT2D", "PubChem SID": "SID160719617", "G2 robust z-score": 0.456}
{"Gene": "KMT2D", "PubChem SID": "SID160719618", "G2 robust z-score": -1.05}

Continued, starting with the last 3 of the part before.
{"Gene": "KMT2D", "PubChem SID": "SID160719616", "G2 robust z-score": 0.0892}
{"Gene": "KMT2D", "PubChem SID": "SID160719617", "G2 robust z-score": 0.456}
{"Gene": "KMT2D", "PubChem SID": "SID160719618", "G2 robust z-score": -1.05}
{"Gene": "MRPL41", "PubChem SID": "SID160724522", "G2 robust z-score": 0.713}
{"Gene": "MRPL41", "PubChem SID": "SID160734080", "G2 robust z-score": 0.77}
{"Gene": "MRPL41", "PubChem SID": "SID160748182", "G2 robust z-score": -0.142}
{"Gene": "MINAR1", "PubChem SID": "SID160735835", "G2 robust z-score": -0.243}
{"Gene": "MINAR1", "PubChem SID": "SID160735836", "G2 robust z-score": -0.39}
{"Gene": "MINAR1", "PubChem SID": "SID160735837", "G2 robust z-score": 3.69}
{"Gene": "CSNK1D", "PubChem SID": "SID160749374", "G2 robust z-score": -2.15}
{"Gene": "CSNK1D", "PubChem SID": "SID160749384", "G2 robust z-score": -1.18}
{"Gene": "CSNK1D", "PubChem SID": "SID160749395", "G2 robust z-score": -0.779}
{"Gene": "LINC02027", "PubChem SID": "SID160734324", "G2 robust z-score": -0.188}
{"Gene": "LINC02027", "PubChem SID": "SID160771666", "G2 robust z-score": -0.484}
{"Gene": "LINC02027", "PubChem SID": "SID160771667", "G2 robust z-score": 1.94}
